From PubChem BioAssay AID1347076 (National Center for Advancing Translational Sciences (NCATS), 2019)
About 13,000 (3.2%) of roughly 400,000 compounds were called active. Inconclusive means that the source gave no clear call. Such entries were picked first, then a sample of the others. The call rests on the fitted dose curve; in most records, active means well fitted cell-killing curve with a large enough effect; inconclusive means small, poorly fitted or top-dose-only effect, or effect the other way; inactive means flat fitted curve, though single readings scatter. Where the call is inconclusive, the potency comes from a doubtful curve fit.

Assay: qHTS assay for MDR1-selective chemotherapeutics: Primary screen using the drug-selected MDR subline cells KB-V1; further: nearly all actives have a fitted effect of over 60% in size
Settings: KB-V1 MDR cells viability, CellTiter-Glo, 72 h; activity change, negative = cytotoxicity: at 46.1 µM (top of the series)
In short: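 Drug-selected KB-V1 cells, grown in DMEM lacking phenol red with 10% FBS, receive compound titrations; after three days at 37 degrees C, surviving cell ATP is quantified by CellTiter-Glo luminescence and responses normalized and curve-fitted.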
On the % scale 0 is the no-effect control and ±100 the full control effect; potency means the concentration at half of the fitted maximal effect.

Structure (SMILES) | Potency | activity change, negative = cytotoxicity
CNc1nc(-c2ccc3c(c2)CCN3C(=O)c2ccc(F)cc2)cs1 | inconclusive: 20.6 µM [cytotoxic, single point] | –
CC(C)CC1NC(=O)c2cccnc2-n2c1nc1ccccc1c2=O (stereo unspecified) | – | inactive: 0%
COC(=O)[C@H]1C[C@@]2(O)CN(S(=O)(=O)c3ccc(C)cc3)C[C@@]2(OC(=O)Nc2cccs2)C[C@H]1C(=O)OC | – | inactive: -8.34%
CSc1cc(-c2ccc(Cl)cc2)[nH]c(=O)c1C#N | – | inactive: -11.6%
Cc1ccc([C@H]2C[C@@H](n3cc(-c4ccc(F)cc4)nn3)[C@H](O)CN2C(=O)C2CCCCC2)cc1 | active: 9.2 µM | –
Cc1noc(C)c1CSCC(=O)N(C)CC(=O)Nc1ccc(Cl)c(C(F)(F)F)c1 | – | inactive: 2.44%
COc1ccc(OC)c2sc(N3CCN(C(=O)CCS(=O)(=O)c4ccc(F)cc4)CC3)nc12 | inconclusive: 23.1 µM [cytotoxic, single point] | –
Cc1cc(Cl)ccc1NC(=O)Cn1nnc2sc(-c3ccccc3)cc2c1=O | – | inactive: 0%
COc1ccc(-c2n[nH]c(=S)n2/N=C/C=C/c2ccccc2OC)cc1 | active: 18.4 µM | –
N#Cc1ccc(Oc2nc(C(N)=O)cc(-c3ccccc3)n2)cc1 | inconclusive: 4.61 µM [cytotoxic, partial curve] | –
Cc1cccn2c(=O)c3cc(C(=O)NCC4CCCO4)c(=N)n(C4CCCC4)c3nc12 (stereo unspecified) | – | inactive: -15%
O=C(CN1CCN(Cc2ccc(Cl)cc2)CC1)N/N=C/c1ccccc1F | inconclusive: 11.6 µM [cytotoxic, partial curve, poor fit] | –
CCc1nnc(NC(=O)c2ccc(Cl)c(S(=O)(=O)N3CCc4ccccc4C3)c2)s1 | – | inactive: 11.7%
CCOC(=O)N1CCN(C(=O)c2cc(COc3ccc4ncccc4c3)on2)CC1 | inconclusive: 6.51 µM [cytotoxic, full curve, poor fit] | –
Cc1ccc(-c2cn(-c3ccc(SC(F)F)cc3)c3[n+]2CCC3)cc1 | – | inactive: -9.23%
CCCCN1CC(O)=C(c2nc3ccccc3[nH]2)C1=N | – | inactive: -18.5%
O=C(NC1CCCCC1)C(c1ccc(C(F)(F)F)cc1)n1c(=O)c(-c2ccco2)nc2ccccc21 (stereo unspecified) | – | inactive: -17.4%
COc1cccc(/C=N/Nc2ccnc(=O)[nH]2)c1O | inconclusive: 1.84 µM [cytotoxic, full curve, poor fit] | –
Cc1nc2nc(SCC(=O)NC3CCCCC3)nn2c(C)c1Cc1ccccc1Cl | – | inactive: -1.24%
C=CCn1c(=O)/c(=C\c2ccsc2)s/c1=C(/C#N)C(=O)NCCN1CCOCC1 | inconclusive: 25.9 µM [cytotoxic, single point] | –
O=C(/C=C/c1ccco1)Nc1nc(-c2ccccc2)cs1 | inconclusive: 29.1 µM [cytotoxic, single point] | –

3 structures out of the list, ordered by count of non-hydrogen atoms, low to high:
Structure (SMILES) | Potency | activity change, negative = cytotoxicity
CSc1cc(-c2ccc(Cl)cc2)[nH]c(=O)c1C#N | – | inactive: -11.6%
Cc1cc(Cl)ccc1NC(=O)Cn1nnc2sc(-c3ccccc3)cc2c1=O | – | inactive: 0%
CCOC(=O)N1CCN(C(=O)c2cc(COc3ccc4ncccc4c3)on2)CC1 | inconclusive: 6.51 µM [cytotoxic, full curve, poor fit] | –
